{
  "sequences": {"note": "By UniProt entry, the sequences of proteins in these tests, tags left out. Where a name states a change or a piece, a line headed by the entry shows the natural chain unless it says otherwise.", "UniProt Q16665": "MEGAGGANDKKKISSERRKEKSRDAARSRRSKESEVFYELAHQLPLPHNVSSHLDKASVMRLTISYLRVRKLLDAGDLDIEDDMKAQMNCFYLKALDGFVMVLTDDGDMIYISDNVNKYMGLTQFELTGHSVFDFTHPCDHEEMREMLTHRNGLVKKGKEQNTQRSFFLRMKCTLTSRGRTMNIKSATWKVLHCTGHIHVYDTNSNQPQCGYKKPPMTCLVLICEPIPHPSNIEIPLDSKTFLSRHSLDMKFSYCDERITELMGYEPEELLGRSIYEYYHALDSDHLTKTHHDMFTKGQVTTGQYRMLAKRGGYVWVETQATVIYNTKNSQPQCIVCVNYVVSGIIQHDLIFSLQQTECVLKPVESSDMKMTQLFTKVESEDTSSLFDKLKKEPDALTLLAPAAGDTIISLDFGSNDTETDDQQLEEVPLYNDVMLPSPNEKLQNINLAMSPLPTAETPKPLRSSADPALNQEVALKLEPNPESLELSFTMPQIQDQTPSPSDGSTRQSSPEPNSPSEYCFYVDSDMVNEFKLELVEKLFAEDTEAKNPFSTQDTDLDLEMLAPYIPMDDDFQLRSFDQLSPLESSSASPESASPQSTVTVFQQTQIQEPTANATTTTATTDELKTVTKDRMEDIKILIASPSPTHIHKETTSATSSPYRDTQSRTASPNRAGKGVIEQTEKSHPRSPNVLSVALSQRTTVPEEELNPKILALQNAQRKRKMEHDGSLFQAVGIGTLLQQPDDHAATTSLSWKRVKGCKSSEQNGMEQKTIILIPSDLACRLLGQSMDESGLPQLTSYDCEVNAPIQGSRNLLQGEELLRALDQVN", "UniProt P35222": "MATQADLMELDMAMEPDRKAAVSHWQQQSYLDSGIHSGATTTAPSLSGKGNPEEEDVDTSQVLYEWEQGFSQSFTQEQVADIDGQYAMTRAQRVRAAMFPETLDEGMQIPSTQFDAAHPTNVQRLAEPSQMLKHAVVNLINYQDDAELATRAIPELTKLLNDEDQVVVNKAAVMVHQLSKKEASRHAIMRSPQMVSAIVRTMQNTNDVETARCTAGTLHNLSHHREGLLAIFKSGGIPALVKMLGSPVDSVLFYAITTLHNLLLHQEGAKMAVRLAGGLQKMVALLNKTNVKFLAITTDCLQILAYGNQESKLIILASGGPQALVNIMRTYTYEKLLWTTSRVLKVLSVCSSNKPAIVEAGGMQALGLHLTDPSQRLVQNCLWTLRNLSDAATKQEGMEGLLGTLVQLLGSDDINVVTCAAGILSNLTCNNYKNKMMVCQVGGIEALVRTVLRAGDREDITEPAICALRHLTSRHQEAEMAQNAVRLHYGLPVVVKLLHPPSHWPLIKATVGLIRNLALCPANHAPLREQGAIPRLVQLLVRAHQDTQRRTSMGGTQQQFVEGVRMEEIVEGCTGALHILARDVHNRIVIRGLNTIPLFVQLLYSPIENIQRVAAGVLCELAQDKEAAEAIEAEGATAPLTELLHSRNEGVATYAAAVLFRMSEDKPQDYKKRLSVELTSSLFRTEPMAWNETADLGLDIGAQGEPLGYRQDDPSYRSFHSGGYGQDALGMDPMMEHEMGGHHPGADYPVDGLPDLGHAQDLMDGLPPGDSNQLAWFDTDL"},
  "source": "paper PMC5633104",
  "about": "(The Journal of Biological Chemistry, 2017)",
  "key": {"[1]": {"target": "Hif1α, endogenous in human intestinal epithelial cells (human (endogenous in HT-29 Cl-19a and FHC CRL-1813)) (UniProt Q16665)", "assay": "co-IP; lysates (RIPA buffer) of HT-29 Cl-19a or CRL-1813 (FHC) cells, unstimulated or treated with EGF, IL-2, Src inhibitor J67242 or Jak3 inhibitor CP-690550; IP then IB with the indicated antibodies"}, "[2]": {"target": "Hif1α, endogenous in human intestinal epithelial cells (human (endogenous in HT-29 Cl-19a and FHC CRL-1813)) (UniProt Q16665)", "assay": "condition: only cells co-stimulated with EGF and IL-2; co-IP; as a2, cells stimulated with EGF in the presence of IL-2"}},
  "note": "Results are given in words; binding and its absence hold for the method and conditions named. In cells and extracts the contact can be indirect. Some binding calls cover weakened binding; strength is not graded here.",
  "data": [
    {"substance": "Tyr654-phosphorylated β-catenin, endogenous in human intestinal epithelial cells (from UniProt P35222 1-781)", "values": [
      {"measurement": "binding", "setting": "[1]", "result": "binds"}
    ]},
    {"substance": "HA-tagged β-catenin–Y30F,Y64F,Y86F (from UniProt P35222 1-781)", "values": [
      {"measurement": "binding", "setting": "[1]", "result": "binds"}
    ]},
    {"substance": "HA-tagged β-catenin–WT (from UniProt P35222 1-781)", "values": [
      {"measurement": "binding", "setting": "[2]", "result": "no binding"},
      {"measurement": "binding", "setting": "[1]", "result": "binds"}
    ]}
  ]
}
